Source: paper doi:10.1101/2022.12.21.521514
Results are given in words; binding and its absence hold for the method and conditions named. Binding seen in cells or lysates may run through a third protein. Some entries that bind do so weakly or less than the wild type. Values belong to the molecule of their own block, whether it stands above or below them.

Chains of the proteins cited; added tags and fusions are not shown.
UniProt Q64373: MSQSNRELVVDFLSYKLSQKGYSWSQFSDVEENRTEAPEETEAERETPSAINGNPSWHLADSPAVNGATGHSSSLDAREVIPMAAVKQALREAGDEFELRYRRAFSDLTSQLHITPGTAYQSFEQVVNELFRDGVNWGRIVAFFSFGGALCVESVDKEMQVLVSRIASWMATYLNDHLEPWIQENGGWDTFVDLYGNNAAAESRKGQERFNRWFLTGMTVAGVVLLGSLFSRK
UniProt O88597: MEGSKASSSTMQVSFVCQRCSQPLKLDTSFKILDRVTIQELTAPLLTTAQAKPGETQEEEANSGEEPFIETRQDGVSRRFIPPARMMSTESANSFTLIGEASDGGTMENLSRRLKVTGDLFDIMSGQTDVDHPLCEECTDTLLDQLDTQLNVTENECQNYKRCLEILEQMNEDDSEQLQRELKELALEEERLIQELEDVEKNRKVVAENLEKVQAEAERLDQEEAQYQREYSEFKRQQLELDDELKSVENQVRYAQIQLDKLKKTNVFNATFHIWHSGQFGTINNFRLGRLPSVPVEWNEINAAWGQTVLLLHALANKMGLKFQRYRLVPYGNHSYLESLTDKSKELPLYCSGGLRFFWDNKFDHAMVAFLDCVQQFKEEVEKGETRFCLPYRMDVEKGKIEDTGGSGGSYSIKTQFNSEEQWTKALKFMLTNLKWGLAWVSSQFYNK

Assays:
Test in all cases: co-IP
[1] = biological target: T1, p19^ARF (mouse (endogenous in beige adipocytes from mouse IGW SVF cells)) (UniProt Q64364)
T1 sequence: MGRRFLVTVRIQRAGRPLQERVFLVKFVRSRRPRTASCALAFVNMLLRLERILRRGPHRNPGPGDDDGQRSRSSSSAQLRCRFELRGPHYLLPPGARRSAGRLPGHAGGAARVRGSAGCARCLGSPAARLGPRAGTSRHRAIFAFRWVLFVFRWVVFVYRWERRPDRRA

[2] = biological target: T2, p16^INK4a (mouse (endogenous in beige adipocytes from mouse IGW SVF cells)) (UniProt P51480)
T2 sequence: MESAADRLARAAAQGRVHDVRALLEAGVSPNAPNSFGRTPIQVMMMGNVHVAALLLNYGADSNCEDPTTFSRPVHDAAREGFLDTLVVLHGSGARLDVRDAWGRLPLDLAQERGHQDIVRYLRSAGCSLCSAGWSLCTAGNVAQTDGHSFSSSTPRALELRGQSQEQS

[3] = biological target: BCL2L1 (mouse (endogenous in beige adipocytes from mouse IGW SVF cells)) (UniProt Q64373)

binding [1]: binds
binding [2]: no binding
Molecule: BCL2L1 (from UniProt Q64373 1-233)

binding [3]: binds
binding [1]: binds
binding [2]: no binding
Molecule: BECN1 (from UniProt O88597 1-448)

binding [3]: binds
B1: p19^ARF (protein, UniProt Q64364 1-169)
chain: T1 sequence
